In all, about 390,000 compounds went through this assay and about 760 (0.19%) were called active. Inconclusive results, whose numbers are uncertain, are shown with a selection of clear calls. Calls come from the whole dose curve; as a rule, active = well fitted inhibition curve with a large enough effect; inconclusive = small, poorly fitted or top-dose-only effect; inactive = flat fitted curve, though single readings scatter. Potencies beside an inconclusive call are fits to weak or partial responses and may not hold up.
Experiment: qHTS for Inhibitors of Vif-A3F Interactions: qHTS; note: nearly all actives have a fitted effect of over 65% in size; for activity, negative = active: % of control where 0% means no effect
Details: HeLa A3F-eYFP + Vif (tagged APOBEC3F with the HIV-1 protein that degrades it), YFP fluorescence increase; series mostly up to 46.1 µM; activity, negative = active: at the top concentration
How it was run: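 HeLa cells stably expressing Vif plus C-terminally eYFP-tagged A3F were seeded, incubated overnight at 37 deg C, dosed with compound, incubated overnight again at 37 deg C. Yellow fluorescence (Ex 488/Em 500-530) reported blocked Vif-mediated A3F-eYFP degradation.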
Potency is the fitted concentration of half-maximal effect.

SMILES | Potency | activity, negative = active
COc1cccc(/C=C2\C=C(c3ccc(C)cc3)OC2=O)c1OC(C)=O | inconclusive: 35.5 µM [inhibitor, single point] | 
CCC(=O)c1cn(CC(=O)Nc2ccccc2Cl)c2ccccc12 | inconclusive: 35.5 µM [inhibitor, single point] | 
CC1CCCCN1CCCNC(=O)c1cc(Br)c(Br)[nH]1 (configuration not stated) | inconclusive: 35.5 µM [inhibitor, single point] | 
COc1cccc(NC(=O)CSc2nc3ccccc3c3nc4ccccc4n23)c1 | inconclusive: 35.5 µM [inhibitor, single point] | 
COCCN1CCn2c(nc3cc(NC(=O)NC4CCCCC4)ccc32)C1 |  | inactive: -7.95%
COc1cccc(C(=O)/C=C/c2ccc(OCC#N)c(OC)c2)c1 | inconclusive: 6.31 µM [inhibitor, single point] | 
COc1ccc(N(C(=O)Cn2nnc(-c3ccccc3F)n2)C(C(=O)NCC2CCCO2)c2ccc(Cl)cc2)cc1 (configuration not stated) | inconclusive: 7.94 µM [inhibitor, partial curve, poor fit] | 
S=C(NCCc1ccccc1)Nc1ccc(Br)cn1 | inconclusive: 5.62 µM [inhibitor, single point] | 
Cc1occc1C(=O)N/N=C/C1=C(N2CCOCC2)C(=C\c2ccc(Cl)cc2Cl)/CC1 |  | inactive: 1.87%
O=C(N/N=C/c1ccc([N+](=O)[O-])o1)c1cn2ccc3ccccc3c2n1 | inconclusive: 6.31 µM [inhibitor, single point] | 
O=C(CSc1ncc2c(n1)-c1cc(Cl)ccc1N(Cc1ccccc1)S2(=O)=O)NCc1ccccc1 | inconclusive: 17.8 µM [inhibitor, single point] | 
Oc1ccccc1C=NN=Cc1c(O)ccc2ccccc12 | inconclusive: 35.5 µM [inhibitor, single point] | 
N#CC1=C(N)OC2=C(CC/C2=C\c2ccccc2Cl)C1c1ccccc1Cl (configuration not stated) | inconclusive: 20 µM [inhibitor, single point] | 
CN(C(=O)COC(=O)Cn1c(C(F)(F)F)nc2ccccc21)c1c(N)n(Cc2ccccc2)c(=O)[nH]c1=O | inconclusive: 11.2 µM [inhibitor, partial curve, poor fit] | 
CCOC(=O)Nc1nc(-c2ccc(Cl)cc2Cl)cs1 | inconclusive: 7.08 µM [inhibitor, partial curve, poor fit] | 
CC(C)(C)c1ccc2c(c1)C(=O)c1ccccc1C2=O | inconclusive: 35.5 µM [inhibitor, single point] | 
CC(=O)Nc1n[nH]c(=S)s1 |  | inactive: 16.7%
Cc1nc2sccn2c(=O)c1S(=O)(=O)N1CCN(c2ccc(F)cc2)CC1 | inactive | 
CCOc1ccc(/C=C2\SC(N3CCc4ccccc4C3)=NC2=O)cc1 | inconclusive: 35.5 µM [inhibitor, single point] | 
CC(=O)C1C=CC(C)(C(=O)O)C2C=C(C)C(=O)C(C)(O)C12 (configuration not stated) | inconclusive: 20 µM [inhibitor, partial curve, poor fit] | 
Cc1nnsc1C(=O)N/N=C/c1c(F)cccc1Cl |  | inactive: -11.2%

SMILES | Potency | activity, negative = active
Cc1cc(/C=C2\SC(=S)NC2=O)c(C)n1-c1ccccc1 | inconclusive: 35.5 µM [inhibitor, single point] | 
O=C(COc1ccccc1F)Nc1ccc2c(c1)OCCO2 | inconclusive: 14.1 µM [inhibitor, single point] | 
CC(=O)Oc1ccc(N2C(=O)C3C4C=CC(CO)(O4)C3C2=O)cc1 (configuration not stated) |  | inactive: 3.75%
CC(=O)C1=C(C)OC(N)=C(C#N)C1c1cc2cccc(C)c2nc1Cl (configuration not stated) |  | inactive: 3.39%
O=C(C1CCN(C2CCN(Cc3ccc4c(c3)CCO4)CC2)CC1)N1CCOCC1 | inconclusive: 6.31 µM [inhibitor, single point] | 
OC(COC(c1ccccc1)c1ccccc1)CN1CCN(c2cccc(Cl)c2)CC1 (configuration not stated) | inconclusive: 35.5 µM [inhibitor, single point] | 
CCn1c(SCc2cccc(OC)c2)nc2ccccc2c1=O | inconclusive: 35.5 µM [inhibitor, single point] | 
CC(C)[N+]1=C2C=CC=CC=C2SC12C([N+](=O)[O-])=CC(=[N+]([O-])[O-])C=C2[N+](=O)[O-] (configuration not stated) | inconclusive: 25.1 µM [inhibitor, single point] | 
Cc1ccc(NC(=O)CN(C)C(=O)c2ccc(Sc3nncn3C)c([N+](=O)[O-])c2)cc1 | inconclusive: 35.5 µM [inhibitor, single point] | 
Cc1cc(C)n(C(=O)/C(C#N)=N\Nc2ccccc2[N+](=O)[O-])n1 |  | inactive: 5.16%
CCOC(=O)c1sc(-c2ccc(C)cc2)c(C#N)c1C |  | inactive: 7.07%
Cc1ccc(Sc2c(C)nn(C(=O)COc3ccccc3)c2C)cc1 |  | inactive: -3.99%
COc1ccccc1-n1c(SCC(=O)NCC2CCCO2)nc2c([nH]c3ccccc32)c1=O (configuration not stated) |  | inactive: -6.23%
Cc1ccc(NC(=O)c2ccc3snnc3c2)cc1Cl |  | inactive: 0.287%
Cc1ccc2c(c1)[C@H]1[C@H](CO2)[C@H](c2ccccc2)[C@]2(C)C(=O)N(Cc3ccc(F)cc3)CC(=O)N12 | inconclusive: 35.5 µM [inhibitor, single point] | 
CCCC(=O)NC(=S)Nc1nc(-c2ccc(OC)cc2)cs1 | inconclusive: 3.55 µM [inhibitor, partial curve, poor fit] | 
COc1ccc2nc3ccccc3nc2c1NC(=O)c1ccc(Cl)cc1Cl | inconclusive: 3.16 µM [inhibitor, partial curve, poor fit] | 
Oc1c(Cl)cc(Cl)cc1/C=C/c1ccc2cccc(O)c2n1 | inconclusive: 17.8 µM [inhibitor, partial curve, poor fit] | 
O=C(COC(=O)c1sc2ccccc2c1Cl)Nc1ncc(Cl)cc1Cl | inconclusive: 25.1 µM [inhibitor, partial curve, poor fit] | 
COc1ccc(-c2ccnc3[nH]n(-c4ccccc4)c(=O)c23)cc1 | inconclusive: 35.5 µM [inhibitor, single point] | 
CCCN1CCC(NC(=O)Cc2ccc(C)cc2)CC1 | inconclusive: 35.5 µM [inhibitor, single point] | 

Record cards, as listed above.
`CC(=O)C1=C(C)OC(N)=C(C#N)C1c1cc2cccc(C)c2nc1Cl` (configuration not stated) reads activity, negative = active: inactive: 3.39%
`COc1ccc2nc3ccccc3nc2c1NC(=O)c1ccc(Cl)cc1Cl` reads Potency: inconclusive: 3.16 µM [inhibitor, partial curve, poor fit]
`Cc1ccc2c(c1)[C@H]1[C@H](CO2)[C@H](c2ccccc2)[C@]2(C)C(=O)N(Cc3ccc(F)cc3)CC(=O)N12` reads Potency: inconclusive: 35.5 µM [inhibitor, single point]
